Results: PubChem BioAssay AID2685 (National Center for Advancing Translational Sciences (NCATS), 2010)
About 2,100 (0.66%) of roughly 320,000 compounds were called active. This list was built around the results that the source calls inconclusive (neither active nor inactive); the mix of calls is not that of the screen. The call rests on the fitted dose curve; in most records, active means well fitted inhibition curve with a large enough effect in the signal ratio, with a control signal flat (not every such curve was filed as active); inconclusive means small, poorly fitted or top-dose-only effect, or effect the other way, or a change in a side signal; inactive means flat fitted curve, though single readings scatter; the % refers to the signal ratio. Where the call is inconclusive, the potency comes from a doubtful curve fit.

Assay: qHTS Assay for Lipid Storage Modulators in Drosophila S3 Cells
Details: BODIPY lipid droplet fluorescence, 18-24 h, cells fed with added oleic acid; lipid storage change, negative = inhibition: at 46.1 µM (top of the series) unless noted
Summary of the method: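 Drosophila S3 cells loaded with oleic acid (400 uM, as added) and compounds at several concentrations; lipid droplets imaged by 488-nm laser-scanning cytometry, 500–530 nm intensity and object ratio to cell channel. Percent activity normalized to 20 uM Triacsin C.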
On the % scale 0 is the no-effect control and ±100 the full control effect; potency means the concentration at half of the fitted maximal effect.

Row | SMILES | lipid storage change, negative = inhibition | Potency | outcome
1 | O=C(CSc1nc2c(c(=O)[nH]1)CCCC2)Nc1ccc(Cl)cc1F | inconclusive: -0.587% | – | –
2 | Cc1ccc(-c2ccc(/C=C(\C#N)C(N)=S)n2C)cc1 | inconclusive: -27% | – | –
3 | CCOc1ccc(-c2nnc(SCC(=O)N3CCNC3=O)o2)cc1 | – | inconclusive: 0.206 µM [falling, full curve, poor fit] | –
4 | O=C(Nc1cccc(NC(=S)NC(=O)c2cccs2)c1)c1ccccc1 | – | inconclusive: 2.31 µM [activator, partial curve] | –
5 | O=C(Cn1sc2ccccc2c1=O)NC12CC3CC(CC(C3)C1)C2 | – | inconclusive: 29.1 µM [falling, partial curve] | –
6 | N#Cc1ccccc1OCCN1C(=O)c2ccccc2C1=O | – | inconclusive: 0.0731 µM [activator, full curve, poor fit] | –
7 | CCc1ccccc1NC(=O)CNC(=O)CNC(=O)c1cccs1 | inconclusive: -44% | – | –
8 | O=C(COC(=O)COc1ccc(Br)cc1)Nc1cccnc1Cl | inconclusive: -49.8% | – | –
9 | CCC(CC)COC(=O)C1=C(C)NC(=O)NC1c1ccccc1Br (stereo not drawn) | – | inconclusive: 29.1 µM [falling, single point] | –
10 | Nc1nc(SCC(=O)N2CCCCC2)[nH]c(=O)c1NC(=O)c1cccs1 | inconclusive: -38.8% | – | –
11 | CC(C)n1nnnc1SCC(=O)N1CCN(Cc2ccc3c(c2)OCCO3)CC1 | – | inconclusive: 29.1 µM [activator, single point] | –
12 | COCCNc1nc(C)cc(-c2cc(-c3ccc(Cl)cc3)on2)n1 | inconclusive: 17.2% | – | –
13 | O=C(NCCCN1CCOCC1)c1ccc(Sc2cccc(Cl)c2)c([N+](=O)[O-])c1 | inconclusive: 24.5% | – | –
14 | CCc1ccc(NC(=O)CSc2nc(=O)n(CCCN3CCOCC3)c3c2CCCC3)cc1 | – | active: 14.6 µM | –
15 | Cc1nc(CCNC(=O)CC2C(=O)NCCN2Cc2ccccc2)sc1C (stereo not drawn) | – | inconclusive: 20.6 µM [falling, single point] | –
16 | O=C(CN1C(=O)NC2(CCCC2)C1=O)Nc1ccc(F)c(F)c1F | inconclusive: -140% | – | –
17 | C/C(NC(=O)c1cccs1)=C1\C(=O)C[C@@H]2[C@H]1C2(C)C | – | inconclusive: 0.13 µM [falling, full curve, poor fit] | –
18 | COc1ccc(CC(=O)N2CCN(c3ccccc3OC)CC2)cc1OC | inconclusive: 13.3% | – | –
19 | Nc1n[nH]c(-c2cccc([N+](=O)[O-])c2)n1 | – | inconclusive: 14.6 µM [activator, partial curve, poor fit] | –
20 | CCCCN(C(=O)C1CC(=O)N(c2ccc(CC)cc2)C1)c1c(N)n(CCC)c(=O)[nH]c1=O (stereo not drawn) | inconclusive | – | –
21 | COc1ccc(C(=O)N2CCN(S(=O)(=O)c3ccc4c(c3)OCCO4)CC2)cc1OC | inconclusive: 25.2% | – | –
22 | Cn1nc(C(=O)Nc2ccc(S(=O)(=O)Nc3ncccn3)cc2)ccc1=O | inconclusive: 10.4% | – | –
23 | COc1ccc(C)cc1N(CC(=O)Nc1ccc2c(c1)OCCO2)S(C)(=O)=O | inconclusive: 20% | – | –
24 | CC(C)n1c(SCC(=O)NCc2ccco2)nc2c1c(=O)n(C)c(=O)n2C | – | inconclusive: 23.1 µM [activator, single point] | –

Row | SMILES | lipid storage change, negative = inhibition | Potency | outcome
25 | COc1ccc(-c2csc3ncn(CC(=O)N4CCOCC4)c(=O)c23)cc1 | – | inconclusive: 29.1 µM [activator, single point] | –
26 | O/N=C1/CC/C(=N\O)c2nn(-c3ccccc3)nc21 | inconclusive: 30.4% | – | –
27 | CN(C)S(=O)(=O)c1ccc(Cl)c(C(=O)NCc2ccco2)c1 | – | inconclusive: 0.0146 µM [falling, full curve, poor fit] | –
28 | CCOC(=O)c1ccc2c(c1)C1C=CCC1C(C(=O)OCC)N2 (stereo not drawn) | – | inconclusive: 13 µM [rising, partial curve] | –
29 | CCOc1ccc(OCCCCOc2ccccc2C(C)=O)cc1 | – | inconclusive: 8.2 µM [activator, partial curve] | –
30 | OCCNCC(O)Cn1ccc2ccccc21 (stereo not drawn) | – | inconclusive: 6.51 µM [falling, partial curve, poor fit] | –
31 | O=C(Nc1ccc(Cl)cc1)c1cccc(NC2=NC3CS(=O)(=O)CC3S2)c1 (stereo not drawn) | inconclusive: 23% | – | –
32 | Cc1ccc(C(=O)N/C(=C\c2ccccc2)C(=O)NCCN2CCOCC2)cc1 | inconclusive: 15.7% | – | –
33 | CCOc1ccc(C(=O)NCCCN2CCOCC2)cc1OCC | inconclusive: 12.6% | – | –
34 | COc1ccccc1C1(CC(=O)O)CCOC(C)(C)C1 (stereo not drawn) | inconclusive: 39.5% | – | –
35 | COC(=O)CCC(=O)NNC(=O)c1ccc(Br)cc1 | – | inconclusive: 0.058 µM [activator, full curve] | –
36 | Cc1ccc(C(=O)O)cc1N1C(=O)CCCC1=O | – | inconclusive: 0.0073 µM [falling, full curve, poor fit] | –
37 | Cn1cccc1C(=O)OCC(=O)NCc1ccc2c(c1)OCO2 | – | inconclusive: 10.3 µM [activator, partial curve] | –
38 | Cc1ccc(C(=O)N2CCN(c3ccccc3)CC2)cc1NC(=O)c1ccco1 | inconclusive: -0.297% | – | –
39 | CC(=O)c1ccc(OC(C)C)c(CSC(=N)N)c1 | inconclusive: -29.1% | – | –
40 | O=C(COC(=O)c1cc2ccccc2cc1O)c1ccccc1 | – | inconclusive: 29.1 µM [activator, single point] | –
41 | CC(C)OCCCNC(=O)COCC(=O)Nc1ccc(OCCc2ccccc2)cc1 | inconclusive: -74.2% | – | –
42 | COc1ccc(OC)c(N(CC(=O)N2CCCC2)S(=O)(=O)c2ccc(C)cc2)c1 | – | inconclusive: 6.51 µM [activator, partial curve, poor fit] | –
43 | CCOc1ccc(S(=O)(=O)N2CCN=C2Cc2ccccc2)cc1C | inconclusive: 48.8% | – | –
44 | O=C1NC2(CCCCCC2)C(=O)N1Cc1ccccc1 | inconclusive: 19.4% | – | –
45 | CCCCCCC(=O)NN1CCN(C)CC1 | – | active: 25.9 µM | –
46 | CCCCn1c(NC(C)CC)nc2c1c(=O)[nH]c(=O)n2C (stereo not drawn) | inconclusive: 15.9% | – | –
47 | COc1ccc(OC)c(NC2=NC3(CCCC3)N=C(N)N2)c1 | – | – | inactive [at 46.1 µM]
48 | O=S(=O)(c1ccccc1)N1CCC(O)(CSc2ccc(F)cc2)CC1 | inconclusive: -0.338% | – | –

An excerpt from above in order of molar mass, smallest number first.
Row | SMILES | lipid storage change, negative = inhibition | Potency | outcome
28 | CCOC(=O)c1ccc2c(c1)C1C=CCC1C(C(=O)OCC)N2 (stereo not drawn) | – | inconclusive: 13 µM [rising, partial curve] | –
29 | CCOc1ccc(OCCCCOc2ccccc2C(C)=O)cc1 | – | inconclusive: 8.2 µM [activator, partial curve] | –
43 | CCOc1ccc(S(=O)(=O)N2CCN=C2Cc2ccccc2)cc1C | inconclusive: 48.8% | – | –
